According to paper PMC9792594:

Molecular target: T1, soluble form of His-tagged chondroitin 4-O-sulfotransferase-1 (UniProt Q9NPF2)
T1 sequence: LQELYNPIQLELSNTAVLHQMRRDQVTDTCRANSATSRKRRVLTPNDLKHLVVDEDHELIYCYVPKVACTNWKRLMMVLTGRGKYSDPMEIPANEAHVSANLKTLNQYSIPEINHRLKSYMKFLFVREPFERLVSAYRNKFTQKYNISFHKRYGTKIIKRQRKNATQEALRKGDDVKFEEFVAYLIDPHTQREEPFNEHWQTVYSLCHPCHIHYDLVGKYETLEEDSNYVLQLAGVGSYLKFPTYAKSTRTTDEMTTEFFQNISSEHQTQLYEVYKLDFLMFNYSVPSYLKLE
Assay: pull-down; culture medium of COS-1 cells co-expressing soluble His-tagged C4ST-1 and FLAG-tagged FAM20 proteins; Ni-NTA agarose or anti-FLAG tag antibody beads, 4 °C, 1 h; washed with TBS with 0.05% Tween 20; eluted with imidazole or FLAG peptide; immunoblot

binding: no binding
Substance: soluble form of FLAG-tagged FAM20B (wild type) (enzyme)

These are yes or no findings as the source states them, for the method shown. In cells and extracts the contact can be indirect. Where a sequence is shown, tags or fusion partners need not be part of it.
